Reference: paper PMC11306101
Results are given in words; binding and its absence hold for the method and conditions named. In cells and extracts the contact can be indirect. Some binding calls cover weakened binding; strength is not graded here. For some assays here: Sequences can lack the tags named with a protein.

Chains of the proteins cited; added tags and fusions are not shown. Lines headed by an entry give the natural chain unless they say otherwise; changes in a name come on top. A line that says so, or that is headed by a name, gives the form on record, which may keep a tag or linker.
UniProt Q92956: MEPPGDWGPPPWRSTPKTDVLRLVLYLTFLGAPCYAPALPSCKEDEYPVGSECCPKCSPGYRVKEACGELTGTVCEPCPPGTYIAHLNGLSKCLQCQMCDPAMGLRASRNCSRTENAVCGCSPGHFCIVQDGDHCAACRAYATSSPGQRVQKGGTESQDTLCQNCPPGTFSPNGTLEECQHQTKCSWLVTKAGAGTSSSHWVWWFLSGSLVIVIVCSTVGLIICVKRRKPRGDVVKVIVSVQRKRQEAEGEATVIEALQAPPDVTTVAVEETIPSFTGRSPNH
UniProt Q8IYR6: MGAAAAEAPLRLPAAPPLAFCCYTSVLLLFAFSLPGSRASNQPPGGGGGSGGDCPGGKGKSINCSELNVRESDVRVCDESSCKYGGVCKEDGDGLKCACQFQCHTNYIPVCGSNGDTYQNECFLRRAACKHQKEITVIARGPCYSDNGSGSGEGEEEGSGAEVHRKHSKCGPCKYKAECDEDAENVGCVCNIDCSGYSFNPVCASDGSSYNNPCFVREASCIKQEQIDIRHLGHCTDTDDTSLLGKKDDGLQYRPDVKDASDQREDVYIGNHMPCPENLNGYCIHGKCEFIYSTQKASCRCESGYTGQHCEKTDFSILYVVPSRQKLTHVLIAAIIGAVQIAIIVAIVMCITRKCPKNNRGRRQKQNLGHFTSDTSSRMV
TMEFF1 Ala297Val (gnomAD homozygous variant), untagged (Q8IYR6, form named): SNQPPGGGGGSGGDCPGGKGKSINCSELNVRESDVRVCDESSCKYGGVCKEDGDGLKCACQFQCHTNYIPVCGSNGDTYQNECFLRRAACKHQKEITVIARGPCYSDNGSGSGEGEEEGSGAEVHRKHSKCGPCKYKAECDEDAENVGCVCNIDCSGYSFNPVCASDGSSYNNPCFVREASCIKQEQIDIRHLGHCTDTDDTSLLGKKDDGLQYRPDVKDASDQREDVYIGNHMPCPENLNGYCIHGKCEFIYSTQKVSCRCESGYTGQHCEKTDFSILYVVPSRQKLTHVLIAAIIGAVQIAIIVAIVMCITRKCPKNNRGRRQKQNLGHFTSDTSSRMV
TMEFF1 Glu134Val (gnomAD homozygous variant), untagged (Q8IYR6, form named): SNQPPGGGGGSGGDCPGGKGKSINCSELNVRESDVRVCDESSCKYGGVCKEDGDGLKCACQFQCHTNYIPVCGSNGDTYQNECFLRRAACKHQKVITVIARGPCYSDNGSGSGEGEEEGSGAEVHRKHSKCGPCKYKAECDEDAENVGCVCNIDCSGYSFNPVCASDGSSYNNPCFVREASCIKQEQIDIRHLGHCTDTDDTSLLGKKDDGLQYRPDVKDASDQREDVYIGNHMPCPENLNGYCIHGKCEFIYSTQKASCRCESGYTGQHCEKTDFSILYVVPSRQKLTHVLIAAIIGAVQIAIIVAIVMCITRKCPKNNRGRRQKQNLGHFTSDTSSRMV
TMEFF1 Gly281Val (gnomAD homozygous variant), untagged (Q8IYR6, form named): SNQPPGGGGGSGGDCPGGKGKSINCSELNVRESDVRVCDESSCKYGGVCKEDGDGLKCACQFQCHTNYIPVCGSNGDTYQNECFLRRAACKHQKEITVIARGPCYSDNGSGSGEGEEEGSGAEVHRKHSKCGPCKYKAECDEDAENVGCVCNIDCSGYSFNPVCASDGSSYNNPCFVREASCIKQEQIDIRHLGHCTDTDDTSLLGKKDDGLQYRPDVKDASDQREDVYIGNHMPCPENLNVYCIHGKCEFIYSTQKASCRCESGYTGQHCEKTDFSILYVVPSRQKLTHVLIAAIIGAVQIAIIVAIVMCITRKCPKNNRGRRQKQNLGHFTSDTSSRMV
TMEFF1 His104Tyr (gnomAD homozygous variant), untagged (Q8IYR6, form named): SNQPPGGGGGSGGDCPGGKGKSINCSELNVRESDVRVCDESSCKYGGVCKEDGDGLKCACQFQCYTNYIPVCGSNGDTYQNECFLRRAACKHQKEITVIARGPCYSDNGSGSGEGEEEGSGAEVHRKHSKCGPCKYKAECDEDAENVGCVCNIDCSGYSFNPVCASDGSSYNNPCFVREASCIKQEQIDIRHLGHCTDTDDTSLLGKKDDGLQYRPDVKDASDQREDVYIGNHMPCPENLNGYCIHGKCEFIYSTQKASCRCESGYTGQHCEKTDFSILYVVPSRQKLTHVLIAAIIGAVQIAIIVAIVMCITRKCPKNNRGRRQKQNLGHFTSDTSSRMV
TMEFF1 Ile284Phe (gnomAD homozygous variant), untagged (Q8IYR6, form named): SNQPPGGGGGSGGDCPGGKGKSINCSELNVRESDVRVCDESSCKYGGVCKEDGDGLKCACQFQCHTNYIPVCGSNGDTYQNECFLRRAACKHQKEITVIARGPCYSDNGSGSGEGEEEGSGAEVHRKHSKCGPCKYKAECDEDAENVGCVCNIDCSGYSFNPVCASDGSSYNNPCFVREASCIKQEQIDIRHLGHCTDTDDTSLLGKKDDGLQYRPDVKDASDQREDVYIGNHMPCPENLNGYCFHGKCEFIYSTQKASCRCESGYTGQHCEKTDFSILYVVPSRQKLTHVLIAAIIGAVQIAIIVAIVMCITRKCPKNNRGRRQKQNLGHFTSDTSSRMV
TMEFF1 Ile344Val (gnomAD homozygous variant), untagged (Q8IYR6, form named): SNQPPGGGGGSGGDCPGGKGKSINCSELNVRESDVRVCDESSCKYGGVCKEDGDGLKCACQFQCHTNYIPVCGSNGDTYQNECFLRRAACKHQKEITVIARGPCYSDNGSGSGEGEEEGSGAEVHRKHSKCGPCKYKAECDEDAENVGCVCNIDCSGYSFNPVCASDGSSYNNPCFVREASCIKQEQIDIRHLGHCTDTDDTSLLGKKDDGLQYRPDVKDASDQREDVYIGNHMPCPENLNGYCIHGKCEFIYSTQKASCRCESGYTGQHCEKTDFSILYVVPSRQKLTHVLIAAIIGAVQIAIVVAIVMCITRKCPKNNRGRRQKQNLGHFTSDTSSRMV
TMEFF1 P2-M1, p.Lys354–Arg360del, untagged (Q8IYR6, form named): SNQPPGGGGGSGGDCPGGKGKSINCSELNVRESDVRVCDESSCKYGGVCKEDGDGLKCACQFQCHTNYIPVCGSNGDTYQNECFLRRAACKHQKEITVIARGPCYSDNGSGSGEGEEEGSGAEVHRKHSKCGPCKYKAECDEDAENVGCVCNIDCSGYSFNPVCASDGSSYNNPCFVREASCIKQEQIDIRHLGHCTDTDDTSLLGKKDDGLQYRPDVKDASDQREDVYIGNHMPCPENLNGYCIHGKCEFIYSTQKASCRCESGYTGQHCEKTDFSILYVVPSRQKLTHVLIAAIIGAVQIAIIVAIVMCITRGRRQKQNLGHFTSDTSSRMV
TMEFF1 Pro255Ser (gnomAD homozygous variant), untagged (Q8IYR6, form named): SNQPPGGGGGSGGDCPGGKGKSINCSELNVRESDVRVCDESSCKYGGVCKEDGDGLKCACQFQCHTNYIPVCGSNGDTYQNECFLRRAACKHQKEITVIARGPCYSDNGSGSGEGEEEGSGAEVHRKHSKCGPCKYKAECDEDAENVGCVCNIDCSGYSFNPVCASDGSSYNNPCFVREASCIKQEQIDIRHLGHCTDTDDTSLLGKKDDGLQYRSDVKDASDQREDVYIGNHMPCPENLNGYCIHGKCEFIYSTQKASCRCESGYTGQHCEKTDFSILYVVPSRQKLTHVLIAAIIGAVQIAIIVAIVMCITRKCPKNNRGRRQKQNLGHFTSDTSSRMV
TMEFF1 p.Pro44Ala (P1's variant), untagged (Q8IYR6, form named): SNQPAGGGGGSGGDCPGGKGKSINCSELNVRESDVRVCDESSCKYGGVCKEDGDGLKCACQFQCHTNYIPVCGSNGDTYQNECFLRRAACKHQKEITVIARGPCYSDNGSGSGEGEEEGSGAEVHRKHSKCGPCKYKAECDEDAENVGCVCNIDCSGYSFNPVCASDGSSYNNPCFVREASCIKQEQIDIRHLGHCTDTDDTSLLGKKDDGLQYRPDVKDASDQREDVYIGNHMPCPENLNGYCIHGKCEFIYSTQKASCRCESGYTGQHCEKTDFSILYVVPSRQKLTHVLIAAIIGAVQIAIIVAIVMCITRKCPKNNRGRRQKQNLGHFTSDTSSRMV

Assays:
[1] = biological target: T1, N-terminal Flag-tagged WT full-length NECTIN-1 (human) (UniProt Q15223); test: co-IP; HEK293T cotransfected with 2 µg of each plasmid, 36–48 h; IP buffer 1.0% Triton X-100, 10% glycerol, 100 mM Tris-HCl pH 7.4, 1 mM EDTA, 75 mM NaCl; IP overnight at 4 °C with anti-TMEFF1 antibody plus protein G magnetic beads, anti-Flag M2 agarose or anti-Myc agarose; immunoblot
T1 sequence: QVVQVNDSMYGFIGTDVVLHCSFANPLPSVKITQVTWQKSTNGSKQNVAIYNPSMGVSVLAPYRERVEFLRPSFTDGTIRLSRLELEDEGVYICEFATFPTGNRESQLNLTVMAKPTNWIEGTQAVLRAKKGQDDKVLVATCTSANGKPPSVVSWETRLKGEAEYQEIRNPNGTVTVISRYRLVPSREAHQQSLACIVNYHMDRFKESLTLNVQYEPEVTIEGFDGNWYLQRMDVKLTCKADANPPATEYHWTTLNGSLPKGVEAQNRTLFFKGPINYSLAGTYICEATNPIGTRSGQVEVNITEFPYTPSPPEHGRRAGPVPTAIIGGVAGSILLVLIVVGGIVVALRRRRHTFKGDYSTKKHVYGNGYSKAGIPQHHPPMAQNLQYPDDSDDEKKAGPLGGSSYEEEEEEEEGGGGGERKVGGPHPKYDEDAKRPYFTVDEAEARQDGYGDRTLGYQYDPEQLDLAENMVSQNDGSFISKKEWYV

[2] = biological target: T2, YFP-tagged NECTIN-1 (human) (UniProt Q15223); test: FRET or BRET; HeLa cells cotransfected with CFP-tagged TMEFF1 and YFP-tagged NECTIN-1 or HVEM; FRET imaging, bleed-through-corrected FRET quantified at the cell surface
T2 sequence: T1 sequence

YFP-tagged HVEM = YFP-tagged HVEM (UniProt Q92956); test: as above
[3] = biological target: T3, N-terminal Flag-tagged NECTIN-1 extracellular domain (EX) (human) (UniProt Q15223); test: co-IP; HEK293T cotransfected with 2 µg of each plasmid, 36–48 h; IP buffer 1.0% Triton X-100, 10% glycerol, 100 mM Tris-HCl pH 7.4, 1 mM EDTA, 75 mM NaCl; IP overnight at 4 °C with anti-TMEFF1 antibody plus protein G magnetic beads, anti-Flag M2 agarose or anti-Myc agarose; immunoblot
T3 sequence: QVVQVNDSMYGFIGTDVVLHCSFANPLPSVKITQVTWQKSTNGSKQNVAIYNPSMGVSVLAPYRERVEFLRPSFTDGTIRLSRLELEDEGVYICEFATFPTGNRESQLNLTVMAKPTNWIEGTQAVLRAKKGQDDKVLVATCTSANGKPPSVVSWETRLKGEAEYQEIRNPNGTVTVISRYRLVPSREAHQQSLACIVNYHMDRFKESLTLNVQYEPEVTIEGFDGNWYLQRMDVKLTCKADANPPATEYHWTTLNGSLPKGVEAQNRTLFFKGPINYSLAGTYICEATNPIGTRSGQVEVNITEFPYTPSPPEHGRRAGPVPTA

[4] = biological target: T4, N-terminal Flag–GFP-tagged NECTIN-1 extracellular domain (EX) (human) (UniProt Q15223); test: as above
T4 sequence: T3 sequence

[5] = biological target: T5, N-terminal Flag–GFP-tagged full-length NECTIN-1 (human) (UniProt Q15223); test: as above
T5 sequence: T1 sequence

[6] = biological target: T6, cell-endogenous NECTIN-1 of HEK293T cells (human (endogenous in HEK293T)) (UniProt Q15223); test: co-IP; endogenous proteins of HEK293T cells, with or without HSV-1 infection (MOI 1); IP with anti-NECTIN-1 antibody or mouse IgG isotype control; immunoblot with anti-NECTIN-1 or anti-TMEFF1
T6 sequence: T1 sequence

binding [1]	Substance	further results
binds	C-terminal Myc-tagged TMEFF1 extracellular domain (EX) (from UniProt Q8IYR6 40-330) (domain or fragment)	
	CFP-tagged TMEFF1 (from UniProt Q8IYR6 40-380)	binding [2]: binds; binding (YFP-tagged HVEM): no binding
binds	TMEFF1 (tomoregulin-1), wild type, untagged (from UniProt Q8IYR6 40-380)	
binds	TMEFF1 Ala297Val (gnomAD homozygous variant), untagged (from UniProt Q8IYR6 40-380)	
binds	TMEFF1 Glu134Val (gnomAD homozygous variant), untagged (from UniProt Q8IYR6 40-380)	
binds	TMEFF1 Gly281Val (gnomAD homozygous variant), untagged (from UniProt Q8IYR6 40-380)	
binds	TMEFF1 His104Tyr (gnomAD homozygous variant), untagged (from UniProt Q8IYR6 40-380)	
binds	TMEFF1 Ile284Phe (gnomAD homozygous variant), untagged (from UniProt Q8IYR6 40-380)	
binds	TMEFF1 Ile344Val (gnomAD homozygous variant), untagged (from UniProt Q8IYR6 40-380)	
binds	TMEFF1 P2-M1, p.Lys354–Arg360del, untagged (from UniProt Q8IYR6 40-380)	
binds	TMEFF1 Pro255Ser (gnomAD homozygous variant), untagged (from UniProt Q8IYR6 40-380)	
binds	TMEFF1 p.Pro44Ala (P1's variant), untagged (from UniProt Q8IYR6 40-380)	
	cell-endogenous TMEFF1 of HEK293T cells (from UniProt Q8IYR6 40-380)	binding [6]: binds

Substance	binding [1]	further results
N-terminal Myc-tagged TMEFF1 extracellular domain (EX) (from UniProt Q8IYR6 40-330) (domain or fragment)	binds	binding [3]: binds
N-terminal Myc-tagged WT full-length TMEFF1 (from UniProt Q8IYR6 40-380)	binds	binding [4]: binds; binding [3]: binds; binding [5]: binds
